The source of these data is publication PMC8355374.

Sequences of proteins named here, by UniProt entry; tags and fusion partners are left off. Residues count along the entry.
UniProt P16671: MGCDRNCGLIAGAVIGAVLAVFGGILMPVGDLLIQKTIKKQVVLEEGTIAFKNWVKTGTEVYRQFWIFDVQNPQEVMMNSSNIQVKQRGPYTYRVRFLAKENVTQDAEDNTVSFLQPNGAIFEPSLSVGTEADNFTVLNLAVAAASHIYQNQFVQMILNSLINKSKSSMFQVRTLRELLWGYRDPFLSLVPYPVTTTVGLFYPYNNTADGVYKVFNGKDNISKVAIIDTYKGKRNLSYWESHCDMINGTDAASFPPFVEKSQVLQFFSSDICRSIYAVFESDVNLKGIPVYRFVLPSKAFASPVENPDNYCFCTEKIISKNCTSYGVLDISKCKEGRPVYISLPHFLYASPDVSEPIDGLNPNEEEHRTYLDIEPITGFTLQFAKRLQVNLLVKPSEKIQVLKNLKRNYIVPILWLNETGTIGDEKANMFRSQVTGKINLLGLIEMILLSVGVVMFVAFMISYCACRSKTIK
UniProt P07996, residues 19-1170: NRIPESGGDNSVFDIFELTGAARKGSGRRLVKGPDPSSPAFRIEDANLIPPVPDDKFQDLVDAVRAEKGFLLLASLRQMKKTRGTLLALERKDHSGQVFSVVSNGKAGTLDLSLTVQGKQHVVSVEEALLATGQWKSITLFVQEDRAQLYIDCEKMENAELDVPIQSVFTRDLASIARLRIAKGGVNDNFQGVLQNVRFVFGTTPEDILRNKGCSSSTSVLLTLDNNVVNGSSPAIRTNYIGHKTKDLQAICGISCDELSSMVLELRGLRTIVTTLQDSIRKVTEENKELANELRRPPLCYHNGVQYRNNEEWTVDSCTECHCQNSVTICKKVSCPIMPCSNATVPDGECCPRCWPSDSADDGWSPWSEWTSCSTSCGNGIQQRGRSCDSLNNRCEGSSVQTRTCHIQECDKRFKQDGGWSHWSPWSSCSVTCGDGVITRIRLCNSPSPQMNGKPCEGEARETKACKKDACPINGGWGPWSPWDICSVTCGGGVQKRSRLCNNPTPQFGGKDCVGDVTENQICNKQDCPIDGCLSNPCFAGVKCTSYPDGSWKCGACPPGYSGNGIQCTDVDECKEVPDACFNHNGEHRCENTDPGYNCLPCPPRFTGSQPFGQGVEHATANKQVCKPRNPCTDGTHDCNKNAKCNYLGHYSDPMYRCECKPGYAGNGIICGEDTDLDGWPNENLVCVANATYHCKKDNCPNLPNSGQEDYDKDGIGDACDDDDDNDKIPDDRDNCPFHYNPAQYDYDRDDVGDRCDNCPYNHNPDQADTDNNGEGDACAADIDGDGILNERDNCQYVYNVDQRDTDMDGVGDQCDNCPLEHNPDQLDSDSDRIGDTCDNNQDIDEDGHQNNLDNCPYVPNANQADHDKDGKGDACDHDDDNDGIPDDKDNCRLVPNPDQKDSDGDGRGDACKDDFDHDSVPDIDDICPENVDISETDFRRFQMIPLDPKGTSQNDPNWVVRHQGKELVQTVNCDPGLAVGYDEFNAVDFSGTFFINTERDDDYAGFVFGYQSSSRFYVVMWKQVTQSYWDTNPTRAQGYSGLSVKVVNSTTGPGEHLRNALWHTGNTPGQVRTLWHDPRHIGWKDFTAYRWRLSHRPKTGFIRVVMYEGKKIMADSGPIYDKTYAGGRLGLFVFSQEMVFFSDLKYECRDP

This assay addresses CD36 (human (endogenous in IHH)) (UniProt P16671). Description: co-IP; IHH hepatocytes treated with recombinant TSP1 in serum-free DMEM for 24 h, then lysed; immunoprecipitation with anti-CD36 antibody (control: IgG), overnight at 4 °C; bound proteins analysed by Western blotting; only the binder purified.

No constants are given. Whether binding was seen depends on the method and setting. In cells and extracts the contact can be indirect. Some binding calls cover weakened binding; strength is not graded here.

In the case of “thrombospondin 1 (TSP1), recombinant (from UniProt P07996 19-1170) (ligand)”, the binding result is given as “binds”.
